# Experimental data published in patent publication US11525133.
# No constants are given. Whether binding was seen depends on the method and setting. Some results given as binding are weak or reduced against the parent protein; the word gives no strength.
# T1: TNKS2 ARC4 (UniProt Q9H2K2)
# T1 sequence (looked up): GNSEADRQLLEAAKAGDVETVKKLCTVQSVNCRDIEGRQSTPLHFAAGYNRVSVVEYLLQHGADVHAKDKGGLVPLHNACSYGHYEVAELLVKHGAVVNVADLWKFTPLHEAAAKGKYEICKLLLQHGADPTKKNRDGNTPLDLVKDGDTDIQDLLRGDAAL
# What was measured:
# [1] = biological target: T1, TNKS2 ARC4; assay: ITC
# [2] = biological target: T1, TNKS2 ARC4; assay: ITC; TNKS2 ARC4 titrated into the TBP-CTPR
binding [1],binding [2],Binder
binds,binds,3TBP-CTPR6 (designed binder) MGSAEAWYNLGNAYYKQGDYQKAIEYYQKALELDPNNREAGDGEEDPRSAEAWYNLGNAYYKQGDYQKAIEYYQKALELDPRSAEAWYNLGNAYYKQGDYQKAIEYYQKALELDPNNREAGDGEEDPRSAEAWYNLGNAYYKQGDYQKAIEYYQKALELDPRSAEAWYNLGNAYYKQGDYQKAIEYYQKALELDPNNREAGDGEEDPRSAEAWYNLGNAYYKQGDYQKAIEYYQKALELDPRS
binds,binds,2TBP-CTPR4 (designed binder) MGSAEAWYNLGNAYYKQGDYQKAIEYYQKALELDPNNREAGDGEEDPRSAEAWYNLGNAYYKQGDYQKAIEYYQKALELDPRSAEAWYNLGNAYYKQGDYQKAIEYYQKALELDPNNREAGDGEEDPRSAEAWYNLGNAYYKQGDYQKAIEYYQKALELDPRS
binds,binds,1TBP-CTPR2 (designed binder) MGSAEAWYNLGNAYYKQGDYQKAIEYYQKALELDPNNREAGDGEEDPRSAEAWYNLGNAYYKQGDYQKAIEYYQKALELDPRS
